{"source": "patent EP2604264B1", "about": "“PHARMACEUTICAL COMPOSITION FOR TREATING VIRAL DISEASES” (Obshestvo S Ogranichennoj Otvetstvennostju \"CytoNIR\", priority 2010, dated 2012)", "system": "A/H3N2/Puerto-Rico-8/34 virus strain", "set-up": "species or system mice", "details": "mouse, in vivo", "note": "Not every detail of the peptide structures is certain; ends, links or a residue may be inferred. Residues, ends and D or L forms follow the SMILES beside them.", "data": [{"smiles": "N[C@@H](CCC(=O)O)C(=O)N[C@@H](Cc1c[nH]c2ccccc12)C(=O)O", "note": "[Row 9] (H-Glu-Trp-OH)", "values": [{"measurement": "Survival on 21st day", "result": 10}]}]}
